The values that follow come from article PMC4106346, “The Oligomeric States of the Purified Sigma-1 Receptor Are Stabilized by Ligands” (The Journal of Biological Chemistry, 2014).

Protein sequences, listed by entry. Tags and fused reporters are not part of them. Lines headed by an entry give the natural chain unless they say otherwise; changes in a name come on top.
UniProt Q60492: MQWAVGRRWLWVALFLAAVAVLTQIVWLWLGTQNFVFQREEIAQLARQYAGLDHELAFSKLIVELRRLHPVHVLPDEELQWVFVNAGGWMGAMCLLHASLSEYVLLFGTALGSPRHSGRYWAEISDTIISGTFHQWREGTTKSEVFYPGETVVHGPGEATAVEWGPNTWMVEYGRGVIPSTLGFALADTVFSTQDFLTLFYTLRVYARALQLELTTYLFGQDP

Results are given in words; binding and its absence hold for the method and conditions named.

The target in assay [1] is MBP-4A-S1R (guinea pig sigma-1 receptor fused to maltose-binding protein through a 4-Ala linker) (guinea pig) (UniProt Q60492). The experiment in a line: condition: only the isolated peak 2 (monomer) fraction, 5 μM; cross-linking; DSS (150 or 250 μM) on 5 μM isolated peak 2 (monomer) of MBP-4A-S1R, 2 h at room temperature, with or without 10 μM BD-1047; SDS-PAGE; both purified.

Assay [2] shares this target. In words: condition: only the isolated peak 2 (monomer) fraction; SEC-MALS; isolated peak 2 (monomer) of MBP-4A-S1R; Superdex S200, 150 mM NaCl, 5 mM HEPES pH 7.2, 0.018% DDM; both purified. Background: SEC sorts molecules by how far they enter the pores of the column.

Regarding “MBP-4A-S1R (guinea pig sigma-1 receptor fused to maltose-binding protein through a 4-Ala linker) (from UniProt Q60492 1-223)”, the binding entry in assay [1] and in assay [2] was “no binding” in each case.
